Results reported in paper PMC4463469.

Key:
[1] = target: T1, Cox17 fusion protein with a C-terminal FLAG tag (S. cerevisiae) (UniProt Q12287); assay: co-IP; anti-FLAG M2 affinity gel on yeast cell extracts (French press, 1% digitonin, 20 mM Tris-HCl pH 7.4, 50 mM NaCl, 50 mM iodoacetamide), 1.5 h at 4 °C; Western blot of eluate; wild-type, mic60Δ, mic10Δ and sco1Δ cells; cells grown with or without 2.2 mM copper sulfate
T1 sequence: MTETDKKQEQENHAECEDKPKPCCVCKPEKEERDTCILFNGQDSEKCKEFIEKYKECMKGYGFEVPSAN

[2] = target: T1, Cox17 fusion protein with a C-terminal FLAG tag (S. cerevisiae); assay: co-IP; anti-FLAG M2 affinity gel on isolated wild-type mitochondria solubilized in 1% digitonin, 10% glycerol, 20 mM Tris-HCl pH 7.4, 300 mM NaCl, 50 mM iodoacetamide; Western blot of eluate

- binding [1]: binds
- binding [2]: binds
Substance: Sco1

These are yes or no findings as the source states them, for the method shown. In cells and extracts the contact can be indirect. Binding calls can cover weak binding; strength is not graded here. Sequences can lack the tags named with a protein.
